Reference: US10894054B2, “FXR agonist compositions for combination therapy” (Intercept Pharmaceuticals, Inc., priority 2015, dated 2021)

Tested on: liver mRNA samples from the study mice
Assay: RNA-Seq hepatic terminal gene expression
Assay type: in vivo, male C57BL/6 mice
Settings: alone or combined, relative to vehicle group
Procedure: RNA purification for RNAseq: Lysis of tissue was performed using a MP FastPrep system. Briefly, 30-50 mg liver biopsy is homogenized and used for RNA extraction on NucleoSpin Plus RNA columns (Macherey-Nagel) as recommended by the supplier. The quantity of the RNA was assessed using a NanoDrop 2000 spectrophotometer (ThermoScientific).
The sequencing data were aligned to the Mus musculus genome obtained from the Ensembl database using the Spliced Transcripts Alignment to a Reference (STAR) software. The python script HTSeq-count available in the HTSeq package was used to count the number of reads mapping to annotated regions. All downstream analysis steps were implemented as scripts for R. For the bioinformatics analysis the quality of the data were evaluated using the standard RNA-seq quality control parameters. To evaluate the inter and intra group variability, principal component analysis and hierarchical clustering were performed. To identify differentially expressed genes the R-package edgeR was used. The list off differentially expressed genes was cross-referenced with information about established NASH biomarkers. Pathway analyses were performed to identify pathways differentially perturbed between the groups.

[1] = high dose: OCA 30 mg/kg, MET 150 mg/kg
[2] = low dose: OCA 10 mg/kg, MET 50 mg/kg

Row | SMILES | Number of Regulated Genes [1] | Number of Regulated Genes [2]
1 | CC[C@H]1[C@@H](O)[C@@H]2[C@H](CC[C@]3(C)[C@@H]([C@H](C)CCC(=O)O)CC[C@@H]23)[C@@]2(C)CC[C@@H](O)C[C@@H]12 [OCA, 3α,7α-dihydroxy-6α-ethyl-5β-cholan-24-oic acid] | 689 | 21
2 | CN(C)C(=N)N=C(N)N [MET, metformin, reference compound] | 120 | 181
